In article PMC5053694:
These are yes or no findings as the source states them, for the method shown. Binding seen in cells or lysates may run through a third protein. Some binding calls cover weakened binding; strength is not graded here. Tags and fused reporters may be left off the sequences shown.

Sequences of proteins named here, by UniProt entry; tags and fusion partners are left off. Residues count along the entry.
UniProt Q9BYZ8, residues 23-158: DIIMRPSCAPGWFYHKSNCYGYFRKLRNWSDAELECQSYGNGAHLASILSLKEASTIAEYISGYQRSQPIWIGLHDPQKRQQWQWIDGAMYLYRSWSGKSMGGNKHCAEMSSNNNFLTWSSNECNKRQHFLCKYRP

Molecular target: T1, GPR37-HA (human) (UniProt O15354)
T1 sequence: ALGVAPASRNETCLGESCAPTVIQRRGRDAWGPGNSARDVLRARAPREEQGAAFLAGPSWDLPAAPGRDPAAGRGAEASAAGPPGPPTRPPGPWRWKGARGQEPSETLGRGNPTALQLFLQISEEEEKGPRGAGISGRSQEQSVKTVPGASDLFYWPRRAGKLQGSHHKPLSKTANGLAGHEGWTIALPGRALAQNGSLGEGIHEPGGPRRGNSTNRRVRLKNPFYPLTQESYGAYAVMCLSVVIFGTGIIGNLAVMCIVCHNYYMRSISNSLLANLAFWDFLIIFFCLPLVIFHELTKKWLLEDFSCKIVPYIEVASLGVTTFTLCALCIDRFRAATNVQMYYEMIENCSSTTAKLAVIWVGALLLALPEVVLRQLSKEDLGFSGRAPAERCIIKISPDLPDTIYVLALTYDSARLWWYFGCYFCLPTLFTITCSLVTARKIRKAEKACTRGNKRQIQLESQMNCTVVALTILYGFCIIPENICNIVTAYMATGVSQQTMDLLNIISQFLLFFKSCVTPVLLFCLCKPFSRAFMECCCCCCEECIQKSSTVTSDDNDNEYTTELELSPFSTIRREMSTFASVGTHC
Assay: co-IP; whole cell extracts of SGC-7901/REG4-Flag immunoprecipitated with anti-Flag antibody, and of SGC-7901/GPR37-HA with anti-HA antibody; blots with anti-GPR37 and anti-REG4 antibody

Substance: REG4 (in SGC-7901/GPR37-HA cells, detected with anti-REG4 antibody) (from UniProt Q9BYZ8 23-158)
- binding: binds
